## Library screen at single concentrations

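Whole-cell growth test on Mycobacterium tuberculosis, read after 3 days in glucose-containing 7H9 medium; the read-out is not stated. Tested at 50 µM. The record gives no direction; compounds that gave an IC50 in retests scored well above the rest, so higher reads as more growth inhibition. About 69,000 compounds were tested under these conditions; 1.1% (about 760) showed 50% or more at least once.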

The filed quantity is “Percent Effect” (%). The record does not define 0% and 100%; most values in the screen are far below 50% and negative numbers occur (in some assays of this library far below -100). This is an unselected part of the compounds tested. Two or more numbers in one place are separate tests of the same structure; such repeats can differ widely.

Compound,effect
Cc1cc(C(=O)N(C)Cc2ccn[nH]2)c(NC(=O)C(C)(C)C)s1,2.786
CCc1ccc(C(C)NC(=O)CCc2nc(-c3nnc[nH]3)no2)cc1 (centres unmarked),4.646 and 3.681
COc1c(CNCc2ccc(S(C)(=O)=O)cc2)c(C)nn1C,-38.44
CC1CCCN1C1CCN(C(=O)c2cccc(-c3ccoc3)c2)CC1 (centres unmarked),-34.18
CN(C)c1cc(C2CCCN(S(=O)(=O)c3cn(C)cn3)C2)ccn1 (centres unmarked),-12.37
CN1CCN(C(=O)Cc2cccc(F)c2)Cc2cccnc21.O=C(O)C(F)(F)F,1.782
Cc1cccnc1[C@H](C)NC(=O)Cc1cc2c(cc1Cl)OCCO2,-31.8
CSCCC(=O)NCc1cc2n(n1)CCN(C(=O)N(C)C)C2,-1.316 and -17.45
COc1ncccc1CN1CCc2[nH]nc(C(=O)N3CCCC3C)c2C1.O=C(O)C(F)(F)F.O=C(O)C(F)(F)F (centres unmarked),-28.58
Fc1cnc(N2CCOCC3(CCCN(c4nncs4)C3)C2)nc1 (centres unmarked),-0.9174
Cn1ccnc1C(=O)N1CCOC(Cc2ccccc2Cl)C1 (centres unmarked),46.58
COc1ccc(CNCc2cn(C)nc2C)cc1,1.015
COCCNC(=O)NCCS(=O)(=O)N1CCN(c2cccc(C)c2)CC1,11.13
CC(=O)c1cn(CC(=O)N2CCC(O)(CO)CC2)c2ccccc12,-6.698
Cc1nc(-c2ccco2)ccc1C(=O)NCCN1CCN(C)CC1,5.657
[H][C@@]12CCN(Cc3cccs3)C[C@]1([H])[C@H](c1nc(C)no1)CCO2,7.104
Cc1ccc(CNC2(Cc3cc(CC(C)C)on3)COC2)o1,-12.94 and 9.898
[H][C@]12CC[C@@]3(N=C(c4ccccc4)NC3=O)[C@@]1([H])CN(CC1CCOCC1)C2,-24.27
CCOCCn1nc(C)cc1C(=O)N1CC[C@](O)(CC)[C@H](O)C1,-17.89
N#Cc1cc(F)ccc1CN1CCCCC1Cn1cncn1 (centres unmarked),8.192
Cc1nc(O)cc(C2CCN(C(=O)C(C)Cn3nc(C)nc3C)CC2)n1 (centres unmarked),19.7
COCCOc1cccc(C(=O)N2CCCC(n3ccnc3)C2)c1 (centres unmarked),3.896 and -4.4
CN(C)C(=O)C1OC2(CCNCC2)c2ccccc21.O=C(O)C(F)(F)F (centres unmarked),-36.34
Nc1nc(CN2CCCCC2Cn2cncn2)nc2ccccc12 (centres unmarked),-2.621
CCC(NCc1ccccc1C)c1ccccc1OCC(=O)NC (centres unmarked),4.128
O=C(CCc1ccsc1)NCC1CCN(C2CC2)C1 (centres unmarked),-8.25
Cc1nn(C)c(C)c1NC(=O)CNC(c1ccc(F)cc1)C1CCC1 (centres unmarked),0.4454
Cc1nc(CN2CCCN(C(=O)COCC3CC3)CC2)cs1,16.69
O=C(c1cccnc1-n1cncn1)N1CCc2ccccc2C1,22.75
CCCNC(=O)CCC(=O)N1CCC(c2n[nH]c(C3CC3)n2)CC1,-25.71
O=C(CCn1cccn1)NS(=O)(=O)N1CCCc2ccccc21,-2.314
c1cncc(CNc2ncnc3c2CCN(Cc2ccsc2)CC3)c1,9.715
[H][C@]12CC[C@]([H])(CN(Cc3ccccc3)C1)N(C(=O)c1ccc(SC)cc1)C2,30.8
CN(Cc1cnn(C)c1)S(=O)(=O)N1CCc2ccccc2C1,-40.24
CN1CCN(Cc2cnc3n2CCN(C(=O)c2ccoc2)C3)CC1,-3.041
COC(=O)N1CCC2(CC1)N=C(CCC(C)C)NC2=O,-6.551
Cc1ncsc1-c1nc(CC2CCN(C)CC2)nn1Cc1ccccc1,-48.05
N#Cc1c(SCCN2CCCCC2)sc2c(O)cc(O)nc12,-6.939
CCn1c(C2CCNCC2)nn(CCn2ccc(C)n2)c1=O,-20.13
Cl.O=C(NCC(F)F)c1cnc(C2CCCN2)cn1 (centres unmarked),-44.78
CCc1ccc(NC(=O)C2CCN(C(=O)COC)CC2)cc1,6.058
O=C(COc1ccc(C(F)(F)F)cc1)N1CCOCC1c1ncon1 (centres unmarked),-43.96
CCOC(=O)N(C)CC(=O)NCCc1coc(-c2ccc(C)cc2)n1,-10.54
O=C(O)C(F)(F)F.O=C(O)C(F)(F)F.O=C(O)C(F)(F)F.[H][C@@]12CCN(Cc3ccncc3)C[C@]1([H])[C@@H](CN(C)Cc1ccco1)OC2,-4.207 and -5.859
CC(=O)N[C@@H]1CN(C(=O)Cc2coc3cc(C)ccc23)C[C@H]1O,1.557
CC(C)(C)c1cnc(CNCC2CCCN2c2cccnn2)o1 (centres unmarked),-22.24
[H][C@]12CCCC(OCc3cccnc3)[C@@]1([H])CN(C(=O)c1cnc(C)cn1)C2 (some centres unmarked),5.246 and 0.3478
Cn1cc(CCNCC2CNc3ccnn3C2)cn1 (centres unmarked),-7.195
CCn1nnc2c1CCN(S(C)(=O)=O)C2COCc1ccccc1 (centres unmarked),-35.91 and -3.405
CC(C)c1nc2oc(C(=O)N3CCOCC3)c(N)c2c2c1CCCC2,15.21
COc1cc(CN(C(=O)Nc2cccnc2OC)C2CC2)ccc1O,-21.86
Cc1nc(-c2ccsc2)ccc1C(=O)NCC(C)N1CCOCC1 (centres unmarked),-1.862
Cc1ccc(-c2nc(CNCC3CN(C)CCO3)co2)c(C)c1 (centres unmarked),23.44 and 32.93
COc1ccc(C2=CNC(C(F)(F)F)=CC2N)cc1 (centres unmarked),28.41
Cc1cc(F)ccc1NC(=O)Cn1cc(C(=O)O)ccc1=O,-13.68
O=c1cccnn1CC1CN(c2ncc(F)cn2)Cc2nccn2C1 (centres unmarked),-2.567
Cc1nn(C)c2c(=O)n(Cc3ccc(F)cc3)nnc12,16.53
COc1ccc(CN2CC(=O)N(c3ccc(C)cc3)CC2C)cc1O (centres unmarked),0.9153
COc1ccc(CN2CCc3c(nc(-c4ccccn4)[nH]c3=O)C2)cc1,30.17
COC(=O)c1ccc(NS(=O)(=O)c2cnc(NC(C)=O)s2)cc1,-4.104
[H][C@]12CC[C@]([H])(CN(CCC(=O)NCc3ccco3)C1)N(CC=C(C)C)C2,-15.84
O=C(c1ccn(-c2cccc(F)c2)n1)N1CCCC(n2cccn2)C1 (centres unmarked),18.72
CNC(=O)[C@@H](c1ccccc1OC)N1CCC[C@H]1C(=O)NC1CC1.Cl,-38.44 and -4.966
CCN1CCn2c(C)cnc2C12CCN(C(=O)N(C)C)CC2.O=C(O)C(F)(F)F.O=C(O)C(F)(F)F,-8.156
Cc1nn(CC(O)CN2CCC(C)CC2)c(=O)c(C#N)c1C (centres unmarked),-13.46
CCN1CCN(S(=O)(=O)c2cc(Cl)c(Cl)cc2C)CC1,12.18
Cc1nc2cc(CNC(=O)C3CC(=O)N(C4CCCC4)C3)ccc2n1C (centres unmarked),1.821
Cc1nc(CN2CCC(O)(c3ccccc3F)CC2)c2ccccn12.O=C(O)CC(O)(CC(=O)O)C(=O)O,9.099

The first 4 entries again:

{"compound": "Cc1cc(C(=O)N(C)Cc2ccn[nH]2)c(NC(=O)C(C)(C)C)s1", "effect": 2.786}
{"compound": "CCc1ccc(C(C)NC(=O)CCc2nc(-c3nnc[nH]3)no2)cc1", "stereo": "centres unmarked", "effect": "4.646 and 3.681"}
{"compound": "COc1c(CNCc2ccc(S(C)(=O)=O)cc2)c(C)nn1C", "effect": -38.44}
{"compound": "CC1CCCN1C1CCN(C(=O)c2cccc(-c3ccoc3)c2)CC1", "stereo": "centres unmarked", "effect": -34.18}

The values are deposited in ChEMBL (CHEMBL3988442, “University of Dundee, Small-Polar-MMV Screening Library” (2021)).